Data from the supplement of paper PMC10849652.
The list shows a part of the results.

Sequences of proteins named here, by UniProt entry; tags and fusion partners are left off. A change or cut given only in a name is not applied to a line headed by its entry.
UniProt Q9UK73, whole entry, looked up: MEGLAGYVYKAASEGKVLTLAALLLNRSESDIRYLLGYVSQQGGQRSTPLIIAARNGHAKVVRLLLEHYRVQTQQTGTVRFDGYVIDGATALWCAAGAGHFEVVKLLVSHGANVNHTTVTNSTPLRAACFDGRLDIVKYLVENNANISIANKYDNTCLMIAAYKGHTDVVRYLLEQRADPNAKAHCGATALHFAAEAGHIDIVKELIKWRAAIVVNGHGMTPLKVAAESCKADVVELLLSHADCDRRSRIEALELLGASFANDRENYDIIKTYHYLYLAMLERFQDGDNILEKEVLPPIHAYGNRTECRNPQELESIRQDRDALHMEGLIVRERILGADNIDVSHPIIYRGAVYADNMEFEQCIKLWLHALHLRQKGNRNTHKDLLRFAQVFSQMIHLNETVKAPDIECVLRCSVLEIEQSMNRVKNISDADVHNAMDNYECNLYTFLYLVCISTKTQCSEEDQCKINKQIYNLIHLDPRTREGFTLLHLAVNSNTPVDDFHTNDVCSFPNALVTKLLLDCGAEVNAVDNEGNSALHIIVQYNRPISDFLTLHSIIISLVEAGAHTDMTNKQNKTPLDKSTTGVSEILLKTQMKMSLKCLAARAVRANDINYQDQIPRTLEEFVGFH
UniProt Q6UN15: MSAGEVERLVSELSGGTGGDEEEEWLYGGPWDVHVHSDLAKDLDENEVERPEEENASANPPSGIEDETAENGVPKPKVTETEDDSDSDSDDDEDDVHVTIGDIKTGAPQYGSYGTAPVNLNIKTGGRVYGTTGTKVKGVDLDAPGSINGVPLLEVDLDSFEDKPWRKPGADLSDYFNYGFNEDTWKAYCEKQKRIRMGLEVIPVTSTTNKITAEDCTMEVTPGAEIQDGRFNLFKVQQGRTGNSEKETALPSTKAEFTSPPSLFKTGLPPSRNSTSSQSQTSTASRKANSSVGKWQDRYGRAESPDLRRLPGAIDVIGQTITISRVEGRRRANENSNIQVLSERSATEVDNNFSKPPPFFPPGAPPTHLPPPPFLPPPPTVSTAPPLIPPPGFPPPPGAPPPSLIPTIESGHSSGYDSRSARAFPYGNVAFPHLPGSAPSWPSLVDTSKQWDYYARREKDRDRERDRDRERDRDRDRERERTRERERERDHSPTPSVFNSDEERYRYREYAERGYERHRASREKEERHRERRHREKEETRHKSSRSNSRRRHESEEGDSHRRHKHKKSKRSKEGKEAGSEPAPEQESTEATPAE
UniProt Q5T1M5: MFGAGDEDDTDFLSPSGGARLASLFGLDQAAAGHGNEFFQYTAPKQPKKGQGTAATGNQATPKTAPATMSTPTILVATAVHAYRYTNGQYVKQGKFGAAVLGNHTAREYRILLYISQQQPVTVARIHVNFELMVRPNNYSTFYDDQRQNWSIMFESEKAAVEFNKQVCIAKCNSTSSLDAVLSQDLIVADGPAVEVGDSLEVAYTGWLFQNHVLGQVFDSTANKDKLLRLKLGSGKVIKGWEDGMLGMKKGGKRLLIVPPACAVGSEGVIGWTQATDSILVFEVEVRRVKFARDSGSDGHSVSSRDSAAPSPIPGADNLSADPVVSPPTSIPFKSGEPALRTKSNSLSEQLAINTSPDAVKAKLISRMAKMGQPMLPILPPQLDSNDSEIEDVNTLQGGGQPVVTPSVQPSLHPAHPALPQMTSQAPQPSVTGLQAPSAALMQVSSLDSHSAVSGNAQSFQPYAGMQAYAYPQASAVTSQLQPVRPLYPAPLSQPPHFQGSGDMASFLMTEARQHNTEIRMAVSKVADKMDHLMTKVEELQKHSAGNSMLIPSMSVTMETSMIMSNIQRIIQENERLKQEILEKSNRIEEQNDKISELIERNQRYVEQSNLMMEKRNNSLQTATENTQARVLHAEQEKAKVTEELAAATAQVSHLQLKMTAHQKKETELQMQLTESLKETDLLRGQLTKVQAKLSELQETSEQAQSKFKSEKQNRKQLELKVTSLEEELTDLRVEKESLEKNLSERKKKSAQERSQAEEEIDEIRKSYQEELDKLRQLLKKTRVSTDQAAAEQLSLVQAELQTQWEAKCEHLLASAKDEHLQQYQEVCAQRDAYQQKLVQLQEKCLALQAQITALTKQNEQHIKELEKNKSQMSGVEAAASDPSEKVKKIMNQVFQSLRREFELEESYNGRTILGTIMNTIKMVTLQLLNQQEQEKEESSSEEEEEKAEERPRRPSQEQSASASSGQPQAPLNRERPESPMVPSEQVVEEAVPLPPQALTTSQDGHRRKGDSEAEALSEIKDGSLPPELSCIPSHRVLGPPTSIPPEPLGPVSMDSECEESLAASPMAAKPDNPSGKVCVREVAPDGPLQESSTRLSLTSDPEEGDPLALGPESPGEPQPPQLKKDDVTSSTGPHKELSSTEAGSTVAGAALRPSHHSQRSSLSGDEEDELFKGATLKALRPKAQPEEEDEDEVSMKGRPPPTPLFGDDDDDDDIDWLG
UniProt P37268: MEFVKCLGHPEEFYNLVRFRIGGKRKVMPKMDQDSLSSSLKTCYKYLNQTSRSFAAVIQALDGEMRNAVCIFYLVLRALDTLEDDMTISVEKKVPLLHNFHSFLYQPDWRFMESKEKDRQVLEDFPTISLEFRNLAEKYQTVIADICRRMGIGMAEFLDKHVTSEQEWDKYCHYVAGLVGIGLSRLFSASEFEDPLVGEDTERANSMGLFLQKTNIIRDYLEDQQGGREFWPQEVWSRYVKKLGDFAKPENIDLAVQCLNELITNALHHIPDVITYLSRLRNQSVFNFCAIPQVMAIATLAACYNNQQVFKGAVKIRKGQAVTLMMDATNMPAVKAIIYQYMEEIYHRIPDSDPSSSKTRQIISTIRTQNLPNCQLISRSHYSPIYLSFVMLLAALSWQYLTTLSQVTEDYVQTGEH
UniProt O95363: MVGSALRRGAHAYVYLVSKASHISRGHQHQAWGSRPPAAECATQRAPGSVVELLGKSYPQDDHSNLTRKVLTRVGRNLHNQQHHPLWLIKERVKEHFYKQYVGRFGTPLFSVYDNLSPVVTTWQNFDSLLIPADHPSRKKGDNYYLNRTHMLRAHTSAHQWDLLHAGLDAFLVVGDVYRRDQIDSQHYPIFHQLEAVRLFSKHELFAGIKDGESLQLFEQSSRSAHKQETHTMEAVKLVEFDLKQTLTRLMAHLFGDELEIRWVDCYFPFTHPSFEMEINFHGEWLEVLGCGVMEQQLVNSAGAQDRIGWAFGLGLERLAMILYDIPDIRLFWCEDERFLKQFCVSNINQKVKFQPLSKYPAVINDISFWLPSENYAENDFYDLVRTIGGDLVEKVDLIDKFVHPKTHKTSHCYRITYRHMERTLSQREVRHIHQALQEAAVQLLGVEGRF
UniProt P22087: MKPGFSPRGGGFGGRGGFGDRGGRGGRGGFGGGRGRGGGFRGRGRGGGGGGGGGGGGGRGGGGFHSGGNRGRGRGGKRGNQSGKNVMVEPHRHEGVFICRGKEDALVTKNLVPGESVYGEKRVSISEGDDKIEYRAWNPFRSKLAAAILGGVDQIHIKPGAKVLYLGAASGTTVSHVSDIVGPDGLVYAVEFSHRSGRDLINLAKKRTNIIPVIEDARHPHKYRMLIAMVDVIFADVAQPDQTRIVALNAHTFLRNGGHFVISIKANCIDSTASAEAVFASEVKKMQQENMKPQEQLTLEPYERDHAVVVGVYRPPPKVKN
UniProt Q9HA64: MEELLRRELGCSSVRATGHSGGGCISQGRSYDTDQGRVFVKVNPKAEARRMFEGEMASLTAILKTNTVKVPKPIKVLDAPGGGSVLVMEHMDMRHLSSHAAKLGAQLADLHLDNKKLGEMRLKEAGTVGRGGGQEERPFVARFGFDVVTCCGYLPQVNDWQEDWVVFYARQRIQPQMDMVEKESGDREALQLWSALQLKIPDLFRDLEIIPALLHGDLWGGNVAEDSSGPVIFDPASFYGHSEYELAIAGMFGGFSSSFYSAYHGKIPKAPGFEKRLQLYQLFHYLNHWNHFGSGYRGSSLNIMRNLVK
UniProt Q9Y5Y0: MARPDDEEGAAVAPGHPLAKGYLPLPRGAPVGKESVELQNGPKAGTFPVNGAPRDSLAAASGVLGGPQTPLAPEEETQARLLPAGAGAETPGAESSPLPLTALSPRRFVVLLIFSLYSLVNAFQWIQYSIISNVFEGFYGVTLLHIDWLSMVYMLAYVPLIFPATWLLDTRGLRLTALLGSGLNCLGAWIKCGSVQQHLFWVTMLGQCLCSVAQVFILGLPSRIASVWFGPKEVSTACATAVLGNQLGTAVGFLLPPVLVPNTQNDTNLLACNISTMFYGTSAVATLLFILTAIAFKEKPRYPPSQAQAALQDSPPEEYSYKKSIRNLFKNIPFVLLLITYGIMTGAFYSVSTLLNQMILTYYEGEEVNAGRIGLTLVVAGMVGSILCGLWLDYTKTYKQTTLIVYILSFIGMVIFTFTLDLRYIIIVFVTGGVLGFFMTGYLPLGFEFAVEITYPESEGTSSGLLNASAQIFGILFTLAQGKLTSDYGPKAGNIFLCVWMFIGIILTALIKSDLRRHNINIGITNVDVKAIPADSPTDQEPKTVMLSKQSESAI
UniProt Q9UBU6: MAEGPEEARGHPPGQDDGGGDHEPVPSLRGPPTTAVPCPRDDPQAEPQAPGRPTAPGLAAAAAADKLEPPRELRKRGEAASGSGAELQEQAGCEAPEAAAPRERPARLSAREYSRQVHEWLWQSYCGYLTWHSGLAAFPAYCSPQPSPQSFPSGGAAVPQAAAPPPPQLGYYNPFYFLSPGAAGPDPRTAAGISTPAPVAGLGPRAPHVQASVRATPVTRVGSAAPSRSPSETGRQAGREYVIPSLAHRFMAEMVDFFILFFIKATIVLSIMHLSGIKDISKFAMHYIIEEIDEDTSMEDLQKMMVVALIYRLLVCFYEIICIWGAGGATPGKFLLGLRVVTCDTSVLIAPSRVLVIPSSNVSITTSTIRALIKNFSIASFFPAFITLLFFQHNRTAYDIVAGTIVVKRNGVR
UniProt Q9Y421: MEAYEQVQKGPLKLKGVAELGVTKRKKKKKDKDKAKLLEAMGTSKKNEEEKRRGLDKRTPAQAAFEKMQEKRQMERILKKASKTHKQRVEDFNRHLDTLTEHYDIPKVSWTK
UniProt Q8N3X1: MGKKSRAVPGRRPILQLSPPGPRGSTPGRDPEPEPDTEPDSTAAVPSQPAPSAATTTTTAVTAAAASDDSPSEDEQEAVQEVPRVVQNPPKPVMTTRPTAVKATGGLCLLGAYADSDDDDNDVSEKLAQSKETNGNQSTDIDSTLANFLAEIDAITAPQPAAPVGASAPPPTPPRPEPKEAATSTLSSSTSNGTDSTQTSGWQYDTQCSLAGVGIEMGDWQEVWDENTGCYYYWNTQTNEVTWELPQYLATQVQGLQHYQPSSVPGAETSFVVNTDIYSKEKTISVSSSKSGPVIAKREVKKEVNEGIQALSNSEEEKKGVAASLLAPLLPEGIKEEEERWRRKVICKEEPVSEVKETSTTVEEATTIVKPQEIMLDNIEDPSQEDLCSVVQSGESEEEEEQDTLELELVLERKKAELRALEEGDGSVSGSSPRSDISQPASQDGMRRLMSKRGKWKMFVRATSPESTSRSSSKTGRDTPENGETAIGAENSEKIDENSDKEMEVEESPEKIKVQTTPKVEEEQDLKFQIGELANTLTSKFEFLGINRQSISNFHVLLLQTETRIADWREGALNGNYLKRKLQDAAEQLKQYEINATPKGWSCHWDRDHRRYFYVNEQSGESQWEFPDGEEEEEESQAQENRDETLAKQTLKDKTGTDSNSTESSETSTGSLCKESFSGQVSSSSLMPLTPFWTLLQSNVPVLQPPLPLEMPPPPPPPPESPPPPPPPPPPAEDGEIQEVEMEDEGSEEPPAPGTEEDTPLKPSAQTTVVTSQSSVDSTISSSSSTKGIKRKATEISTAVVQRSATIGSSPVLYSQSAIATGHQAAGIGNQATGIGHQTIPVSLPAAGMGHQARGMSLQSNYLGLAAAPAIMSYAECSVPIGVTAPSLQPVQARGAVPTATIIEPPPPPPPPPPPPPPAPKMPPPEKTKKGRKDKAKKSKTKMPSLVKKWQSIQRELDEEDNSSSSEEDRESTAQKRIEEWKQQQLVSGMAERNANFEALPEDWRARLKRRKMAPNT
UniProt Q52LJ0: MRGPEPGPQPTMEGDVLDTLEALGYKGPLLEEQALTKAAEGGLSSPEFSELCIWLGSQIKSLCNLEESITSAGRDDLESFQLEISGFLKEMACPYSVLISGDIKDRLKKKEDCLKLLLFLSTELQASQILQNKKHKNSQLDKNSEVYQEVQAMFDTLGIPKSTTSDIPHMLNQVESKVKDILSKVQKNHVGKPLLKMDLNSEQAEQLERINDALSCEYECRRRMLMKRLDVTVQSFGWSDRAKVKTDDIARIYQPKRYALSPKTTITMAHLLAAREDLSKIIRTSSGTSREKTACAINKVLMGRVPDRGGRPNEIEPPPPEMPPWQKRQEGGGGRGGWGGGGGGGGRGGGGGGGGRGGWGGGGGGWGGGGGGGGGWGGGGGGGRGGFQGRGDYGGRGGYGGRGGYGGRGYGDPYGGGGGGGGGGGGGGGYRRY

Compound: Nc1ccccc1NC(=O)c1ccc(CNC(=O)OCc2cccnc2)cc1 [entinostat]
Assay: log2 fold change, soluble protein after heating vs DMSO (PISA); higher = thermal stabilisation; K562 cells, 10 uM, 30 min; active = over 0.2 and 3.5 SD of the protein, either way, in both replicates (recomputed)
Method in brief: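 Aliquots of K562 cells (2×10^6 cells/mL) treated with 10 μM compound for 30 min were heated for 3 min over 48°C-58°C. After pooling and extraction in PBS with 0.5% NP-40 at 4°C, soluble protein from a 21,000xg, 90 min spin was quantified by TMTpro 16plex LC-MS/MS with channel sums equalised. Thermal stability is expressed against control samples, from duplicates, as a log2 fold change.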

Target | log2 fold change
FBXO5 (UniProt Q9UKT4) | inactive: -0.007
FEM1B (UniProt Q9UK73) | inactive: 0.008
FKBP7 (UniProt Q9Y680) | inactive: -0.029
FAM76B (UniProt Q5HYJ3) | inactive: -0.082
FIP1L1 (UniProt Q6UN15) | inactive: -0.083
FBXO22 (UniProt Q8NEZ5) | inactive: 0.014
FAM91A1 (UniProt Q658Y4) | inactive: -0.003
FKBP15 (UniProt Q5T1M5) | inactive: 0.082
FKBP3 (UniProt Q00688) | inactive: 0.016
FBXO7 (UniProt Q9Y3I1) | inactive: 0.038
FDX2 (UniProt Q6P4F2) | inactive: 0.007
FDFT1 (UniProt P37268) | inactive: -0.008
FBXL20 (UniProt Q96IG2) | inactive: 0.044
FKBPL (UniProt Q9UIM3) | inactive: -0.021
FARS2 (UniProt O95363) | inactive: 0.028
FBXO30 (UniProt Q8TB52) | inactive: -0.003
FHL2 (UniProt Q14192) | inactive: -0.035
FECH isoform 2 (UniProt P22830) | inactive: -0.01
FAM50A (UniProt Q14320) | inactive: 0.045
FBL (UniProt P22087) | inactive: -0.109

A few values from the entries so far.
FKBPL (UniProt Q9UIM3) | log2 fold change: inactive: -0.021
FBXO7 (UniProt Q9Y3I1) | log2 fold change: inactive: 0.038
FAM91A1 (UniProt Q658Y4) | log2 fold change: inactive: -0.003

(next part)

Target | log2 fold change
FBLL1 (UniProt A6NHQ2) | inactive: -0.062
FBXO3 (UniProt Q9UK99) | inactive: -0.039
FN3KRP (UniProt Q9HA64) | inactive: -0.019
FLVCR1 (UniProt Q9Y5Y0) | inactive: 0.003
FAM8A1 (UniProt Q9UBU6) | inactive: -0.006
FGFR1OP (UniProt O95684) | inactive: 0.108
FKBP14 (UniProt Q9NWM8) | inactive: 0.003
FGF13 isoform 3 (UniProt Q92913) | inactive: -0.019
FBXO6 (UniProt Q9NRD1) | inactive: 0.013
FKBP2 (UniProt P26885) | inactive: -0.035
FAM32A (UniProt Q9Y421) | inactive: 0.014
FDPS (UniProt P14324) | inactive: 0.001
FNBP4 isoform 2 (UniProt Q8N3X1) | inactive: -0.039
FAM98B (UniProt Q52LJ0) | inactive: -0.006
FARSB (UniProt Q9NSD9) | inactive: 0.025
FAM98A (UniProt Q8NCA5) | inactive: -0.073
FAU (UniProt P62861) | inactive: -0.104
FIS1 (UniProt Q9Y3D6) | inactive: -0.004
FAM3C (UniProt Q92520) | inactive: -0.045
